Experimental data from PubChem BioAssay AID485314 (National Center for Advancing Translational Sciences (NCATS), 2010).
Screen size: about 340,000 compounds; about 4,500 (1.3%) were called active. This list was built around the results that the source calls inconclusive (neither active nor inactive); the mix of calls is not that of the screen. The call rests on the fitted dose curve; in most records, active means well fitted inhibition curve with a large enough effect; inconclusive means small, poorly fitted or top-dose-only effect, or another doubt; inactive means no such curve, though single readings can be large or run the other way. A potency beside an inconclusive call is a rough fit, not a confirmed value.

Each compound was assayed against DNA polymerase beta (Homo sapiens) (UniProt P06746) (assay: qHTS Assay for Inhibitors of DNA Polymerase Beta). Conditions: Pol beta primer extension/strand displacement, fluorescence kinetic; activity change, negative = inhibition: at 114 µM (top of the series).
Outline: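 Curves were derived by four-parameter Hill fits of normalized qHTS data. The kinetic fluorescent primer-extension read was taken at 0 and 10 min after 50 nM substrate, following a 15 min room-temperature preincubation of 10 nM enzyme with compounds.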
On the % scale 0 is the no-effect control and ±100 the full control effect; potency means the concentration at half of the fitted maximal effect.

Structure (SMILES)	Potency	activity change, negative = inhibition
Nc1nc(Nc2ccc(Cl)cc2)nc2ccccc12	inactive	
Cc1cccc(Cn2c(SCC(=O)Nc3ccccc3)nc3c2c(=O)[nH]c(=O)n3C)c1	inconclusive: 89.1 µM [inhibitor, single point]	
O=C(N/N=C/c1ccncc1)c1cc(Br)ccc1OCc1ccccc1	inconclusive: 89.1 µM [inhibitor, single point]	
CC(NC(=O)CNC(=O)c1ccco1)c1ccccc1 (stereo not drawn)	inactive	
Cc1cccn2cc(-c3cccc(NC(=O)c4cccs4)c3)nc12	inconclusive: 89.1 µM [inhibitor, single point]	
CC(C)(C)n1nnnc1C(c1cccs1)N(Cc1ccc(Cl)cc1)CC1CCCO1 (stereo not drawn)	inconclusive: 12.6 µM [inhibitor, single point]	
CC(=O)Nc1ccc(S(=O)(=O)N2CCN(CC(=O)N3CCOCC3)CC2)cc1	inconclusive: 89.1 µM [inhibitor, single point]	
CCc1cc(=O)oc2c(C)c(OCC(=O)Nc3ccc(S(=O)(=O)N(CC)CC)cc3)ccc12	inactive	
COc1ccc(S(=O)(=O)Nc2nc3ccccc3nc2Nc2ccc3c(c2)OCO3)cc1	inactive	
COc1ccc(Nc2cc(C)c3cc(NC(=O)COc4cccc(C)c4)ccc3n2)cc1	inactive	
COc1ccc2nc(NC(=O)c3nc(S(=O)(=O)Cc4ccc(C)cc4)ncc3Cl)sc2c1	inconclusive: 3.55 µM [inhibitor, full curve]	
COc1ccc(OC(=O)c2ccc(OC)c(S(=O)(=O)N3CCOCC3)c2)cc1	inconclusive: 20 µM [inhibitor, single point]	
CCOc1ccccc1NC(=O)CN(c1cc(C)cc(C)c1)S(=O)(=O)c1c(C)nn(C)c1C	inconclusive: 39.8 µM [inhibitor, partial curve, poor fit]	
Cc1ccc(NC(=O)c2cc(NC(=O)c3ccco3)ccc2N2CCOCC2)cc1	inactive	
Cc1ccc(N=N/C(=C\O)C(=O)c2ccncc2)cc1	inconclusive: 15.8 µM [inhibitor, partial curve, poor fit]	
O=C(Nc1ccc2ccccc2c1)c1ccc2[nH]c(=O)c(=O)[nH]c2c1		inconclusive: -44.1% [inhibitor]
COc1ccc(NC(=O)C2CCN(c3ccc(Sc4ccc(C)cc4)nn3)CC2)cc1	inconclusive: 10 µM [inhibitor, full curve]	
COc1cccc(CNC(=O)Cn2c(=O)nc(-c3ccccc3F)c3cc(Cl)ccc32)c1	inactive	
Cc1cc(C)c(S(=O)(=O)c2c(C)cccc2C)c(OCC(C)C)n1	inconclusive: 2 µM [inhibitor, partial curve, poor fit]	
COc1ccc(CC2(CO)CCN(Cc3cnn(C)c3)CC2)cc1	inconclusive: 35.5 µM [inhibitor, single point]	
Fc1cccc(F)c1/C=C/c1ccc2ccccc2n1	inactive	
Cc1nn(Cc2ccc(Cl)cc2)c(Cl)c1/C=N/NC(=O)c1cccnc1	inconclusive: 3.55 µM [inhibitor, single point]	
COC(=O)c1cc(N=C(N)N=C(N)N)cc(C(=O)OC)c1	inconclusive: 44.7 µM [inhibitor, partial curve, poor fit]	

Full records, quoted from the list.
`Cc1ccc(N=N/C(=C\O)C(=O)c2ccncc2)cc1` reads Potency: inconclusive: 15.8 µM [inhibitor, partial curve, poor fit]
`COc1ccc(S(=O)(=O)Nc2nc3ccccc3nc2Nc2ccc3c(c2)OCO3)cc1` reads Potency: inactive
`Cc1nn(Cc2ccc(Cl)cc2)c(Cl)c1/C=N/NC(=O)c1cccnc1` reads Potency: inconclusive: 3.55 µM [inhibitor, single point]

(listing goes on)

Structure (SMILES)	Potency	activity change, negative = inhibition
Cc1ccc(/C=C/c2onc(C)c2S(=O)(=O)N2CCC(C(=O)N3CCN(c4cc(C)ccc4C)CC3)CC2)cc1	inactive	
COc1cccc(OCC(O)CN2CCN(CCN3C(=O)c4cccc5cccc(c45)C3=O)CC2)c1 (stereo not drawn)	inconclusive: 17.8 µM [inhibitor, full curve, poor fit]	
COc1ccccc1Oc1ccc(N/C=C/C(=O)c2ccco2)cc1	inconclusive: 22.4 µM [inhibitor, full curve]	
COCCn1c(SCC(=O)N2CCC(C)CC2)nc2c([nH]c3ccccc32)c1=O	inconclusive: 89.1 µM [inhibitor, single point]	
CC(NC(=O)/C(=C/c1cccc([N+](=O)[O-])c1)NC(=O)c1ccco1)C(=O)O (stereo not drawn)	inactive	
O=C(COC(=O)c1ccc([N+](=O)[O-])s1)Nc1ncc(C(F)(F)F)cc1Cl	inconclusive: 31.6 µM [inhibitor, full curve]	
N#CCC(=O)Nc1ncn(Cc2ccccc2Cl)n1	inconclusive: 89.1 µM [inhibitor, single point]	
COc1ccccc1C(=O)N/N=C/C(C)=C/c1ccccc1	inconclusive: 39.8 µM [inhibitor, single point]	
O=C(Nc1ccccc1Sc1ccccc1)C1CCCO1 (stereo not drawn)	inconclusive: 39.8 µM [inhibitor, partial curve]	
COc1ccc(/C=N/NC(=O)CO/N=C(\C)c2cccs2)cc1	inconclusive: 0.282 µM [inhibitor, full curve, poor fit]	
O=C(OCCNc1nc(-c2ccccc2)nc2ccccc12)c1ccncc1	inconclusive: 20 µM [inhibitor, full curve, poor fit]	
CCC1(C)NC(=O)N(CC(=O)Nc2sc3c(c2C(N)=O)CCC3)C1=O (stereo not drawn)	active: 20 µM	
Cc1noc(C)c1CSc1nnc2ccc3ccccc3n12	inconclusive: 1 µM [inhibitor, full curve, poor fit]	
CCOc1ccccc1CNC(=O)Cn1ccc2cc(S(=O)(=O)N3CCCCCC3)ccc21	inconclusive: 0.126 µM [inhibitor, full curve, poor fit]	
O=C1CC(c2cccc(Br)c2)C2=C(CCCC2=O)N1 (stereo not drawn)	inconclusive: 4.47 µM [inhibitor, single point]	
CC1Oc2ccccc2C=C1/C=N/Nc1ccc(C(=O)O)cc1 (stereo not drawn)	inconclusive: 10 µM [inhibitor, partial curve]	
c1cnc(SCCOc2cccc3ccccc23)nc1	inconclusive: 56.2 µM [inhibitor, partial curve, poor fit]	
Cn1c(NC(=O)c2ccc(F)cc2)nc2ccccc21	inactive	
N/C(Cc1ccc([N+](=O)[O-])cc1)=N\OC(=O)c1ccc2ccccc2c1	inconclusive: 89.1 µM [inhibitor, single point]	
O=C(Nc1ccccc1F)c1coc(=O)c(Br)c1	active: 12.6 µM	
Cn1nnc(NC(=S)NC(=O)Cc2ccccc2)n1	inconclusive: 20 µM [inhibitor, partial curve]	
Cc1c(/C=C(\C#N)C(=O)Nc2cccc(Cl)c2)c2ccccc2n1Cc1ccccc1		inconclusive: -46% [inhibitor]
Cc1ccc(S(=O)(=O)N(C)C)cc1NC(=O)c1c(-c2c(F)cccc2Cl)noc1C	inconclusive: 100 µM [inhibitor, single point]	

Structure (SMILES)	Potency	activity change, negative = inhibition
O=S(=O)(Nc1cc(Sc2ncn[nH]2)c(O)c2ccccc12)c1ccccc1	inconclusive: 22.4 µM [inhibitor, full curve]	
C=CCn1c2[n+](c3ccccc3c1=O)CCCCC2	inconclusive: 70.8 µM [inhibitor, single point]	
Nc1nc(SCC(=O)c2ccc(F)cc2)n[nH]1	inactive	
CC(=O)C(=Cc1ccc(C(=O)O)cc1)C(C)=O	inconclusive: 31.6 µM [inhibitor, full curve, poor fit]	
C[C@@H]1C=C(C(=O)O)O[C@H](OCc2ccc(CO)cc2)C1	inconclusive: 89.1 µM [inhibitor, single point]	
CN(C(=O)c1ccc2c(c1)CCN2S(C)(=O)=O)c1ccccc1	inconclusive: 89.1 µM [inhibitor, single point]	
CCc1ccccc1NC(=O)Cn1c(=O)n(CC(=O)NCCc2ccccc2)c(=O)c2ccccc21	inactive	
COc1cc(OC)cc(C(=O)NCCSC2CCCCC2)c1	inconclusive: 100 µM [inhibitor, single point]	
COc1cccc(/C=N/Nc2ccc([N+](=O)[O-])cc2)c1O	active: 44.7 µM	
COc1ccc(/C=N/NC(=O)C2(C)NC(C)(C)Cc3ccccc32)cc1 (stereo not drawn)	inconclusive: 22.4 µM [inhibitor, full curve, poor fit]	
Cc1nc2c(-c3ccccc3)c(C)nn2c(C)c1CCC(=O)Nc1ccccc1F	inactive	
CCCC(=O)Nc1c(-c2ccc(C)cc2)c(=O)c2ccccc2n1C	inconclusive: 100 µM [inhibitor, partial curve, poor fit]	
COc1ccccc1N1CCN(CCCC(=O)c2ccc(F)cc2)CC1	inconclusive: 89.1 µM [inhibitor, single point]	
O=C(COc1ccc2oc(-c3ccco3)cc(=O)c2c1)N1CCCCC1	inconclusive: 11.2 µM [inhibitor, full curve]	
COc1ccccc1N1CCN(C(=O)CCn2nc(C)c(S(=O)(=O)N3CCCC3)c2C)CC1	inactive	
CCC(=O)N(CCC(c1ccco1)c1ccccc1OC)Cc1cccs1 (stereo not drawn)	inconclusive: 0.1 µM [inhibitor, full curve, poor fit]	
O=S(=O)(c1ccc(NC(=S)N/N=C/c2ccc(O)c(O)c2)cc1)N1CCOCC1	inactive	
COc1cccc2c1OC1(C)CC2NC(=O)N1c1cccc(C(=O)N2CCN(c3ccccc3)CC2)c1 (stereo not drawn)	inconclusive: 56.2 µM [inhibitor, partial curve, poor fit]	
Cn1nccc1NC(=O)COCC(=O)O	inactive	
CCc1nnc(NC(=O)c2ccc(Cl)c(S(=O)(=O)N3CCc4ccccc43)c2)s1	active: 20 µM	
Cc1ccc(-c2nc3n(n2)Cc2ccccc2-3)cc1	inconclusive: 39.8 µM [inhibitor, full curve]	
COc1ccc(C(=O)NCCC(=O)N2CCC3(CC2)NCCc2[nH]cnc23)cc1	inconclusive: 0.158 µM [inhibitor, full curve, poor fit]	
